Assay results taken from patent EP1495132B1, “SYSTEMIC MARKER FOR MONITORING ANTI-INFLAMMATORY AND ANTIOXIDANT ACTIONS OF THERAPEUTIC AGENTS” (priority 2002, dated 2003).
At least one structure is not confirmed: it was looked up by name or label, or the drawing left a doubt.

By UniProt entry, the sequences of proteins in these tests, tags left out. Residues count along the entry.
UniProt P05164, 279-745 limits assumed: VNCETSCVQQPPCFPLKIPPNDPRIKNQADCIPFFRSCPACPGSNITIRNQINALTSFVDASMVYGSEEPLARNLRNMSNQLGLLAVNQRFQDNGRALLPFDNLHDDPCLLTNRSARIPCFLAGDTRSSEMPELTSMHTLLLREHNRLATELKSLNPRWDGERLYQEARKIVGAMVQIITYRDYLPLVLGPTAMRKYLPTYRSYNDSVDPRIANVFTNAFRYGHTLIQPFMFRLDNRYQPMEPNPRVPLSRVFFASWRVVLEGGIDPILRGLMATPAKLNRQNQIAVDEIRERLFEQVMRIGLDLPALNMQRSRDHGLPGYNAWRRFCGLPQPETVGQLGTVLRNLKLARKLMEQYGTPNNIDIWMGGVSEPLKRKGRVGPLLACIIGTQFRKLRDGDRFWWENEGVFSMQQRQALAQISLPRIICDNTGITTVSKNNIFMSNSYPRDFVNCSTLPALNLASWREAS
UniProt P05164, 165-273 limits assumed: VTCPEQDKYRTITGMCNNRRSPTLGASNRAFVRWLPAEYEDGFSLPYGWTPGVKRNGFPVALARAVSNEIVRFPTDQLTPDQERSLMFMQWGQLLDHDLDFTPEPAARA

Tests used:
Human neutrophils = assay: Neutrophil-dependent initiation of lipid peroxidation of endogenous plasma lipids (PMA-activated neutrophils, LC/ESI/MS/MS); assay type: cell-based; settings: 50% plasma, 2 h, 37° C, 1 mM NaN3, 300 nM catalase, 100 µM methionine, 100 µM ascorbate, 10 µg/ml SOD
Protocol: (§1) Neutrophils (1×10^6/ml) isolated from normal and MPO-deficient individuals were incubated at 37° C in HBSS supplemented with DTPA (100 µM, pH 7.0) and fresh human plasma (50% v/v). Cells were activated by addition of phorbol myristate acetate (PMA, 200 nM) and incubated for 2 h (Complete System). The content of 9-H(P)ODE and 9-H(P)ETE formed within endogenous plasma lipids were then determined by LC/ESI/MS/MS. Where indicated, human MPO (30 nM) was added to reaction mixtures. Data represent the mean ±SD of triplicate determinations. Each bar within a cluster for a given condition represents results obtained from independent experiments performed with neutrophil preparations from a distinct donor. PMN(MPO+), neutrophils isolated from normal subjects; PMN(MPO-), neutrophils isolated from MPO-deficient subjects. • Figs. 5(A-B) are graphs showing the characterization of neutrophil-dependent initiation of lipid peroxidation of endogenous plasma lipids. […] The content of 9-H(P)ODE and 9-H(P)ETE formed within endogenous plasma lipids were then determined by LC/ESI/MS/MS. […] The content of 9-H(P)ODE and 9-H(P)ETE formed within endogenous plasma lipids were then determined by LC/ESI/MS/MS. […] The contents of the indicated oxidized PC species were determined in native LDL and LDL oxidized by the MPO-H2O2-NO2 system (NO2-LDL) using LC/ESI/MS/MS. […]

human MPO = molecular target: T1, human MPO (Homo sapiens, UniProt P05164); assay: MPO-dependent initiation of lipid peroxidation of endogenous plasma lipids (isolated MPO plus glucose/glucose oxidase); assay type: biochemical; settings: 30 nM MPO, G/GO, 50% plasma, 12 h, 37° C; 1 mM NaN3, 300 nM catalase, 200 nM SOD, 100 µM methionine, 100 µM ascorbate
T1 construct: from tissue; host or cells: human leukocytes, for the MPO standard of the ELISA; the lipid peroxidation text only says 'isolated'/'purified' and cites the literature
Protocol: as §1

O=C1O[C@H]([C@@H](O)CO)C(O)=C1O [ascorbate]
neutrophil-dependent peroxidation of endogenous plasma lipids (9-H(P)ODE and 9-H(P)ETE) (Human neutrophils): complete inhibition | MPO-dependent lipid oxidation in plasma (9-H(P)ODE and 9-H(P)ETE) (human MPO): inhibited
